Experimental data from paper PMC3573115.
Construct, isoform or probe ends are uncertain for at least one entry. For some assays here: A negative result means that nothing was seen under these conditions. Protein sequences can lack the tags named with them.

Key:
[1] = target: T1, Har-Rel-D (mature Har-Relish) (Helicoverpa armigera) (UniProt G3LF45); test: competition with a labelled probe; settings: 100-fold excess unlabeled nS against labeled LP1; 10 mM Hepes-K+ pH 7.9, 10% glycerol, 50 mM KCl, 4 mM MgCl2, 1 mM DTT, 0.5 mg/ml BSA, 0.1 mM PMSF, 1 ug poly(dI/dC), 27 C 30 min; 5% native PAGE in 1x TBE; protein translated in vitro; residues 1-509; label: unlabeled
T1 sequence (looked up): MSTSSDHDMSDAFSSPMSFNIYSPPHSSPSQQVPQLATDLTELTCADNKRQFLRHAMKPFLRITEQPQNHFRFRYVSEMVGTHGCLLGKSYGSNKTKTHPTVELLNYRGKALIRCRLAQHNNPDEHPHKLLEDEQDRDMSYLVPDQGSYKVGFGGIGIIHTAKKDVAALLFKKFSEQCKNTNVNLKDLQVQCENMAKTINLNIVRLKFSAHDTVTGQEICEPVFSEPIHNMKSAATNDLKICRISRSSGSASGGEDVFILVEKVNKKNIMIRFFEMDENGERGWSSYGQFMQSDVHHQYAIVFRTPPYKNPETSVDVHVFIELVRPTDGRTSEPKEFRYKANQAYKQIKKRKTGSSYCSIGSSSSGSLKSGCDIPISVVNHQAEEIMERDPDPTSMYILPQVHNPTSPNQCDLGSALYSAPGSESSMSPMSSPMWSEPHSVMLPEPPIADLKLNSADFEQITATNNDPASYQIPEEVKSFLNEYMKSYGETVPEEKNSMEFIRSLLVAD

[2] = target: T1, Har-Rel-D (mature Har-Relish) (Helicoverpa armigera); test: EMSA; settings: reduced by 100-fold excess unlabeled LP1; 10 mM Hepes-K+ pH 7.9, 10% glycerol, 50 mM KCl, 4 mM MgCl2, 1 mM DTT, 0.5 mg/ml BSA, 0.1 mM PMSF, 1 ug poly(dI/dC), 27 C 30 min; 5% native PAGE in 1x TBE; protein translated in vitro; residues 1-509; label: 32P (Klenow fill-in with [alpha-32P]dATP)

Row | Sequence | binding result [1] | binding result [2]
1 | TTAAGATTATTTACGCAACCGCATTGCAAAATAAAAC (double strand) [nS] | no binding | –
2 | TTTGGGGGGAATCCCCCCCATCTGGCATCACTGAATA (double strand) [LP1] | – | binds
